These are yes or no findings as the source states them, for the method shown. Some binding calls cover weakened binding; strength is not graded here.
Assays:
[1] = molecular target: IL-23Fc (human) (UniProt Q9NPF7); experiment: ELISA, coated antigen, biotinylated antibody
[2] = molecular target: IL-23Fc (human) (UniProt Q9NPF7); experiment: ELISA, coated human IL-23 (IL-23Fc), biotinylated antibody, streptavidin-HRP, mOD at 450 nm [panel A]

By UniProt entry, the sequences of proteins in these tests, tags left out. Where a name states a change or a piece, a line headed by the entry shows the natural chain unless it says otherwise.
UniProt Q9NPF7: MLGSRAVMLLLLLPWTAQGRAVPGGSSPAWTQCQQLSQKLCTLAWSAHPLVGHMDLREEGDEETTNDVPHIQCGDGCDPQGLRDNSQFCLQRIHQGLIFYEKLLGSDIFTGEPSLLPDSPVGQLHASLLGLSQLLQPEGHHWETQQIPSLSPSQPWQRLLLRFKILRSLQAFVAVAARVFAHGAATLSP

binding [1]: binds
binding [2]: binds
B1: E11E7Chimera (antibody, human IgG1, kappa, V domains shown)
VH: QVQLKESGPGLVQPSQTLSLTCTVSGFSLISYNVHWVRQPRGKGLEWMGVIWTGGSTDYNSVLKSRLSISRDTSKSQVFLKMHSLQTEDIGTYYCARDKYGLFPGYFDYWGQGVMVTVSS
VL: DIVMTQSPFSLAVSEGEMVTINCKPSQSLLSSGNRKNYLAWYQQKPGQSPKLLIYYASTRQSGVPDRFIGSGSGTDFTLTISDVQAEDLADYYCLQHFNYPWTFGGGTKLELKR
